Results are given in words; binding and its absence hold for the method and conditions named. In cells and extracts the contact can be indirect. Some binding calls cover weakened binding; strength is not graded here. Tags and fused reporters may be left off the sequences shown.
T1: HA-SETD8 (UniProt Q9NQR1)
T1 sequence: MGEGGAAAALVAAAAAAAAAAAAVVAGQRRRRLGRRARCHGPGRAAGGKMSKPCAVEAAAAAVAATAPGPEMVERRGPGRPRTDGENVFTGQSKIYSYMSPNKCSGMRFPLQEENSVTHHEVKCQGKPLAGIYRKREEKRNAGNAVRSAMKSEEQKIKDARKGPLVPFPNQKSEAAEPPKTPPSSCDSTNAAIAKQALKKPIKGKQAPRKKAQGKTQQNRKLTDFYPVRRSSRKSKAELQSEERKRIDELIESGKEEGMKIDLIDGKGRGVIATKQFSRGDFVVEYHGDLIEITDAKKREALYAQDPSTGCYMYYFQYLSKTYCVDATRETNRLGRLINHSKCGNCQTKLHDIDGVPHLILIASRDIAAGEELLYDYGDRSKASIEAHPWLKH

T2: GFP-USP29 wildtype (ubiquitin-specific peptidase 29) (human) (UniProt Q9HBJ7)
T2 sequence: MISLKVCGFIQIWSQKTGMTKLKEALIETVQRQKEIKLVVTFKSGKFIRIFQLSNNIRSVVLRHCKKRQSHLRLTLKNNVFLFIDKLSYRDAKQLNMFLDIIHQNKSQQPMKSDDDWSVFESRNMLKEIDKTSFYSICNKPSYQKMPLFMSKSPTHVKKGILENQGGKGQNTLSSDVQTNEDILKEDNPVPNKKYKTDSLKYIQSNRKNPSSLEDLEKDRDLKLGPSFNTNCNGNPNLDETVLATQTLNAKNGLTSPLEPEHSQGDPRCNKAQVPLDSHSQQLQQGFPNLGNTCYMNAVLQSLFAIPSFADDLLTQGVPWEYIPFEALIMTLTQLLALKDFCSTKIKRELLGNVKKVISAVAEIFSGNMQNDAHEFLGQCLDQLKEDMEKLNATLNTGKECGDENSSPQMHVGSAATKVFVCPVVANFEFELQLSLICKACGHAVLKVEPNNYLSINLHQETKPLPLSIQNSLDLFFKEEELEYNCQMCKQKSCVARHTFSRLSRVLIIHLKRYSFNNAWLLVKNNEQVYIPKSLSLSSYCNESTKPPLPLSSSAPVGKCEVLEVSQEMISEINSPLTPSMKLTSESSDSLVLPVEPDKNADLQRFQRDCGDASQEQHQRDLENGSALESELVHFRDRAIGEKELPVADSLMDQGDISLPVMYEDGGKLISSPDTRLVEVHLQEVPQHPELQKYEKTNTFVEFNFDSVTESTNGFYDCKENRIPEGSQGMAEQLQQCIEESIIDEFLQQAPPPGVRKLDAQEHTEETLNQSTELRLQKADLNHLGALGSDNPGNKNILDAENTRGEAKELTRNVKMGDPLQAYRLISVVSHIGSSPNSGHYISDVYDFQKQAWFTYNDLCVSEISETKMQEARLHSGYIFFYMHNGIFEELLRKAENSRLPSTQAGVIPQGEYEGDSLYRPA


What was measured:
[1] = target: T1, HA-SETD8; experiment: co-IP; 293T cells co-transfected with HA-SETD8 and GFP-USP29 (WT or CI); EB150 lysis buffer (50 mM Hepes pH 7.5, 150 mM NaCl, 5 mM EDTA, 2 mM MgCl2, 0.5% NP40, 10% glycerol); HA immunoprecipitation on antibody-coupled protein A-sepharose, 2 h at 4 °C, four washes; Western blot
[2] = target: T2, GFP-USP29 wildtype (ubiquitin-specific peptidase 29) (human); experiment: co-IP; 293T cells co-transfected with HA-SETD8 and GFP-USP29 (WT or CI); EB150 lysis buffer (50 mM Hepes pH 7.5, 150 mM NaCl, 5 mM EDTA, 2 mM MgCl2, 0.5% NP40, 10% glycerol); GFP immunoprecipitation on antibody-coupled protein A-sepharose, 2 h at 4 °C, four washes; Western blot

binding [1]	binding [2]	Binder
binds		GFP-USP29 wildtype (ubiquitin-specific peptidase 29) (enzyme, UniProt Q9HBJ7 1-922) MISLKVCGFIQIWSQKTGMTKLKEALIETVQRQKEIKLVVTFKSGKFIRIFQLSNNIRSVVLRHCKKRQSHLRLTLKNNVFLFIDKLSYRDAKQLNMFLDIIHQNKSQQPMKSDDDWSVFESRNMLKEIDKTSFYSICNKPSYQKMPLFMSKSPTHVKKGILENQGGKGQNTLSSDVQTNEDILKEDNPVPNKKYKTDSLKYIQSNRKNPSSLEDLEKDRDLKLGPSFNTNCNGNPNLDETVLATQTLNAKNGLTSPLEPEHSQGDPRCNKAQVPLDSHSQQLQQGFPNLGNTCYMNAVLQSLFAIPSFADDLLTQGVPWEYIPFEALIMTLTQLLALKDFCSTKIKRELLGNVKKVISAVAEIFSGNMQNDAHEFLGQCLDQLKEDMEKLNATLNTGKECGDENSSPQMHVGSAATKVFVCPVVANFEFELQLSLICKACGHAVLKVEPNNYLSINLHQETKPLPLSIQNSLDLFFKEEELEYNCQMCKQKSCVARHTFSRLSRVLIIHLKRYSFNNAWLLVKNNEQVYIPKSLSLSSYCNESTKPPLPLSSSAPVGKCEVLEVSQEMISEINSPLTPSMKLTSESSDSLVLPVEPDKNADLQRFQRDCGDASQEQHQRDLENGSALESELVHFRDRAIGEKELPVADSLMDQGDISLPVMYEDGGKLISSPDTRLVEVHLQEVPQHPELQKYEKTNTFVEFNFDSVTESTNGFYDCKENRIPEGSQGMAEQLQQCIEESIIDEFLQQAPPPGVRKLDAQEHTEETLNQSTELRLQKADLNHLGALGSDNPGNKNILDAENTRGEAKELTRNVKMGDPLQAYRLISVVSHIGSSPNSGHYISDVYDFQKQAWFTYNDLCVSEISETKMQEARLHSGYIFFYMHNGIFEELLRKAENSRLPSTQAGVIPQGEYEGDSLYRPA
	binds	HA-SETD8 (enzyme, UniProt Q9NQR1 1-393) MGEGGAAAALVAAAAAAAAAAAAVVAGQRRRRLGRRARCHGPGRAAGGKMSKPCAVEAAAAAVAATAPGPEMVERRGPGRPRTDGENVFTGQSKIYSYMSPNKCSGMRFPLQEENSVTHHEVKCQGKPLAGIYRKREEKRNAGNAVRSAMKSEEQKIKDARKGPLVPFPNQKSEAAEPPKTPPSSCDSTNAAIAKQALKKPIKGKQAPRKKAQGKTQQNRKLTDFYPVRRSSRKSKAELQSEERKRIDELIESGKEEGMKIDLIDGKGRGVIATKQFSRGDFVVEYHGDLIEITDAKKREALYAQDPSTGCYMYYFQYLSKTYCVDATRETNRLGRLINHSKCGNCQTKLHDIDGVPHLILIASRDIAAGEELLYDYGDRSKASIEAHPWLKH
